Test results published in US5821330A (Nihon Medi-Physics Co., Ltd., priority 1993, dated 1998).
Ends that are not written are not given here. * marks the point of attachment. Acm = CC(=O)NC*

Experiment: general procedure: Fmoc solid-phase peptide synthesis; HMP Resin
Conditions: whole synthesis

| Substance | final purity (method not given) |
| --- | --- |
| C(Acm)GC(Acm)GGKTKPREQQYNSTYRVV | not less than 95% |
| C(Acm)GC(Acm)GGGKEYKAKVSNKALPAPIEKTISK | 95% or more |
